Some of the results follow.
Compound: CN(CCOC1=CC=C(C=C1)C[C@H]2C(=O)NC(=O)S2)C3=CC=CC=N3 (racemic) [rosiglitazone]
Assay: log2 fold change, soluble protein after heating vs DMSO (PISA); higher = thermal stabilisation; K562 cells, 10 uM, 30 min; active = over 0.2 and 3.5 SD of the protein, either way, in both replicates (recomputed)
Outline: (§1)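 K562 cells at 2×10^6 cells/mL were given 10 μM compound for 30 min. Aliquots then went through 3 min of heating across 48°C-58°C, were pooled, and were extracted in PBS with 0.5% NP-40 at 4°C, and the supernatant after 21,000xg for 90 min was quantified by TMTpro 16plex LC-MS/MS with channel sums equalised. Thermal stability relative to control samples, from duplicates, is given as log2 fold change.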

By UniProt entry, the sequences of proteins in these tests, tags left out. Where a name states a change or a piece, a line headed by the entry shows the natural chain unless it says otherwise.
UniProt O95873: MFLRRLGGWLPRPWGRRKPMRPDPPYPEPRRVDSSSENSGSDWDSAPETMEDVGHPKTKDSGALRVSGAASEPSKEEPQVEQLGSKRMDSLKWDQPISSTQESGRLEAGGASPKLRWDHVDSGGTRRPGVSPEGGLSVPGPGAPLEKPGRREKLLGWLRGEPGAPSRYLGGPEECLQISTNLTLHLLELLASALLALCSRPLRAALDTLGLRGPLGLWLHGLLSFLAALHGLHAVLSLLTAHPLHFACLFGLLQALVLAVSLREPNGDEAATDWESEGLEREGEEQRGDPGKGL
UniProt Q9HAS0: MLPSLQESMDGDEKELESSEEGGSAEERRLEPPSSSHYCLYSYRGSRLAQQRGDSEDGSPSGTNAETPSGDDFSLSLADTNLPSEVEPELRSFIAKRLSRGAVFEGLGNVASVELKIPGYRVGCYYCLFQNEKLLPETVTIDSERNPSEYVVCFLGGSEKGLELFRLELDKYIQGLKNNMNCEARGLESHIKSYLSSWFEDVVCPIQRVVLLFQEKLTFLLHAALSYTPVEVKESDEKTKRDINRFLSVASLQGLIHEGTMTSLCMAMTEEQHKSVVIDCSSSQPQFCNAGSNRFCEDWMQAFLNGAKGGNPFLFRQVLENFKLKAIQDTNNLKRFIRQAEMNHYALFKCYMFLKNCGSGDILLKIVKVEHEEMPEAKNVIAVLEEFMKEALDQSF
UniProt P07384: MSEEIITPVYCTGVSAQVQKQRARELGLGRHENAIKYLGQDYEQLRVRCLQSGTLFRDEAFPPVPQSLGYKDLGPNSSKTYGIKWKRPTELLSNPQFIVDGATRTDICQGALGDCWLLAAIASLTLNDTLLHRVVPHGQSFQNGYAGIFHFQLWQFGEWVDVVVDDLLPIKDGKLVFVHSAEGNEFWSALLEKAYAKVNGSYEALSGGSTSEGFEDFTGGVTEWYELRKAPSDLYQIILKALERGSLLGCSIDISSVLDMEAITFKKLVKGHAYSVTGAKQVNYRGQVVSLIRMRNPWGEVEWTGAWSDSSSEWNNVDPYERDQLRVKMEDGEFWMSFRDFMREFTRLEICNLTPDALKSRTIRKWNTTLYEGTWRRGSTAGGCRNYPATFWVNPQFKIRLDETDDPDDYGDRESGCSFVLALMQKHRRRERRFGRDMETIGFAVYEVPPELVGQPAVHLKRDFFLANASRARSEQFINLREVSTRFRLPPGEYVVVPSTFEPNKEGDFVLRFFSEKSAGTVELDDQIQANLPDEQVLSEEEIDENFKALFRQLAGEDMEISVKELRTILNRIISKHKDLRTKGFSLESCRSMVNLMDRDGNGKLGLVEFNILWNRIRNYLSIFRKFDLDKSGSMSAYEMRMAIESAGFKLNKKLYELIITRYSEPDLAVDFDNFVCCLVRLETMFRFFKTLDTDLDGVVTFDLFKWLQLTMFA
UniProt P47756, whole entry, looked up: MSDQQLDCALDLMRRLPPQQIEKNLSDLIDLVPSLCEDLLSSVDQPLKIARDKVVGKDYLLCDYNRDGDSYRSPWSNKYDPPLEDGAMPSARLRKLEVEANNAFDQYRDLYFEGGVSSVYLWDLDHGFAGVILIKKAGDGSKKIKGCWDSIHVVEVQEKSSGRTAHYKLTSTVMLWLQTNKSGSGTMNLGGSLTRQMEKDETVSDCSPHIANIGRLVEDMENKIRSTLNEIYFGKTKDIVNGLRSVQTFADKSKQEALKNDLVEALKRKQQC
UniProt Q8N5I9: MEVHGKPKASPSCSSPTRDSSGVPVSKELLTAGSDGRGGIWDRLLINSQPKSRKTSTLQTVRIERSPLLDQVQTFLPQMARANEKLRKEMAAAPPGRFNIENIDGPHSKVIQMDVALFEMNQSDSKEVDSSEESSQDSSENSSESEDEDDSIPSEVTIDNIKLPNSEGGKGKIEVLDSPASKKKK
UniProt Q8NDD1: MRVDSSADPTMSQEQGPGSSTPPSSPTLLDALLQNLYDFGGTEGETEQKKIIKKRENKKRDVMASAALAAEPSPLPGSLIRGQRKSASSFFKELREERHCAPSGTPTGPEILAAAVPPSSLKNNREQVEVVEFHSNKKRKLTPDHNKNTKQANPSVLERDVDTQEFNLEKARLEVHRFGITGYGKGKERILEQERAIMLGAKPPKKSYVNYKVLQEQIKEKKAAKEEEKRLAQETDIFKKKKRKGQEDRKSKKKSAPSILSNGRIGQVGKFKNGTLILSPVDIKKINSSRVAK
UniProt P01024, whole entry, looked up: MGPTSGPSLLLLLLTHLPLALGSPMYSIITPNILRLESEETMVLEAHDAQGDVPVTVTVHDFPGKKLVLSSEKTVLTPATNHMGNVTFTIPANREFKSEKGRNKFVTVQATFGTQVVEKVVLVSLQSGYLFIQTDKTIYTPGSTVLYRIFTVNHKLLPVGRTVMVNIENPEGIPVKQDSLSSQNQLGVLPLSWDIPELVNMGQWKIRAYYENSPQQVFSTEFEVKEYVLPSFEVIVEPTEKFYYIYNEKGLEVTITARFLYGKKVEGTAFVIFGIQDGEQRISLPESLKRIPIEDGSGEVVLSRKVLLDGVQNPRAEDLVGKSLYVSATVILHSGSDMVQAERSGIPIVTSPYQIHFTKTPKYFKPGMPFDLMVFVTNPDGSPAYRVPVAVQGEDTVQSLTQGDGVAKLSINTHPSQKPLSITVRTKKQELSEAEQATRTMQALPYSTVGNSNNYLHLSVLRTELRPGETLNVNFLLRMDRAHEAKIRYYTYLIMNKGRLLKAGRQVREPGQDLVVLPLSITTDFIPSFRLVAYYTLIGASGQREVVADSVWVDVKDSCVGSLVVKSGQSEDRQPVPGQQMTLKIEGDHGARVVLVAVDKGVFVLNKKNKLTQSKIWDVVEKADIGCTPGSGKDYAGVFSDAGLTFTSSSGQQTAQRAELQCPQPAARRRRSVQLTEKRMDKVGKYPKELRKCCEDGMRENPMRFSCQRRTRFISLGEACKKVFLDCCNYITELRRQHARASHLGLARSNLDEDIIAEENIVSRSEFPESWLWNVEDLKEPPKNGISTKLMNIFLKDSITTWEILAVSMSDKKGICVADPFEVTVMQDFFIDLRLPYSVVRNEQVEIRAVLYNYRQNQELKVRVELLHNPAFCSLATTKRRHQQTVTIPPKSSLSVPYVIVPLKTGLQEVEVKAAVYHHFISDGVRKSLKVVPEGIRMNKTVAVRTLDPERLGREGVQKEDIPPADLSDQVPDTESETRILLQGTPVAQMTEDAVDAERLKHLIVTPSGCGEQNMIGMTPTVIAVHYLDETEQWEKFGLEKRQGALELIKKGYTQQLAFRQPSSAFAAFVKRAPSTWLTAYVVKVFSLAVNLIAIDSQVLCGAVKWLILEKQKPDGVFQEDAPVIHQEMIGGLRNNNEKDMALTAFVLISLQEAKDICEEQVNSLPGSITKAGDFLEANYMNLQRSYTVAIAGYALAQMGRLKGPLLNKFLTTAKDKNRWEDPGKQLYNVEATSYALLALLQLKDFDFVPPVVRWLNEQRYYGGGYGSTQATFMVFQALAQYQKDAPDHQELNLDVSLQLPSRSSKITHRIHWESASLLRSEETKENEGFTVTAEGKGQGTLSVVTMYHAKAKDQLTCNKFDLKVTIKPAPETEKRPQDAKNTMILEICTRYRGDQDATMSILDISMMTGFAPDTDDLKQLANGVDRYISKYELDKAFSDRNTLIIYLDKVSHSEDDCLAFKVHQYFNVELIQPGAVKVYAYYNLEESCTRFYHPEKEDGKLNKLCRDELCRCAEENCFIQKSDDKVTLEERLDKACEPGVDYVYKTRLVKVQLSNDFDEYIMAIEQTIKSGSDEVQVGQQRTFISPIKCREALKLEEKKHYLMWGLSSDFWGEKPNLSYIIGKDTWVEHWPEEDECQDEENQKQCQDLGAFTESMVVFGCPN
UniProt Q96EU7: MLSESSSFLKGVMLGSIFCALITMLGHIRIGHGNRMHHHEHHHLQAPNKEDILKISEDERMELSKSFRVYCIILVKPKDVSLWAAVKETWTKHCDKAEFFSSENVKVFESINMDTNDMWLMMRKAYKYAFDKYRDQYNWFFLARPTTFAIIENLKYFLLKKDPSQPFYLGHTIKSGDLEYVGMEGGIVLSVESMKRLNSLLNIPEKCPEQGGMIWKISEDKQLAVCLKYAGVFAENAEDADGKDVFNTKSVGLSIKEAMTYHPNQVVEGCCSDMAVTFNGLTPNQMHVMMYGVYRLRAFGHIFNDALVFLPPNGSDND
UniProt Q9Y6W3: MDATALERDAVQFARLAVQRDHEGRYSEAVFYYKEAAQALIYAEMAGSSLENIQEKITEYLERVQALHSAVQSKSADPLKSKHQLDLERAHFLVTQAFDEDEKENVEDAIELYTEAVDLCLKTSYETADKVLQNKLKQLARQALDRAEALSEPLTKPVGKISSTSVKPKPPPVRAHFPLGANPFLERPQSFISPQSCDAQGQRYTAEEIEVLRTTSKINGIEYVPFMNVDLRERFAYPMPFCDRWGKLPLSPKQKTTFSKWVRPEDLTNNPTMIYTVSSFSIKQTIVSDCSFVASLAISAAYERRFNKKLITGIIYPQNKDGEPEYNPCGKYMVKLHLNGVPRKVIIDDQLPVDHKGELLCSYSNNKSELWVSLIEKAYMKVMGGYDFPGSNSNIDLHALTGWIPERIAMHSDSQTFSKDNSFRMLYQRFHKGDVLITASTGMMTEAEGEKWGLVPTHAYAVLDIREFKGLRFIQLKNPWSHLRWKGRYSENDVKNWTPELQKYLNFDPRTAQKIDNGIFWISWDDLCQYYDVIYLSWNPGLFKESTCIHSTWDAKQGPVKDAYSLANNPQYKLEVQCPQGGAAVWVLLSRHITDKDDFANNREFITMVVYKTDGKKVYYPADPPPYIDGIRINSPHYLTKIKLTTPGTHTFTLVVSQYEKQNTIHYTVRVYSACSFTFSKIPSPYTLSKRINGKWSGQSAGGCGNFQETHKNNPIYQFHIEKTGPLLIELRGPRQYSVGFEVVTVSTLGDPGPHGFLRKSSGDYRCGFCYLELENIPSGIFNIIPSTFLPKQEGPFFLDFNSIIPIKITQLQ
UniProt Q8WUR7: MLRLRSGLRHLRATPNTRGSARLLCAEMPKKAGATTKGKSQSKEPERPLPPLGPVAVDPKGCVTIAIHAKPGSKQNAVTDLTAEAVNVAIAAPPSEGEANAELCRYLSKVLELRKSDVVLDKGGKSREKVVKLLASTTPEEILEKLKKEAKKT
UniProt Q9HB71, whole entry, looked up: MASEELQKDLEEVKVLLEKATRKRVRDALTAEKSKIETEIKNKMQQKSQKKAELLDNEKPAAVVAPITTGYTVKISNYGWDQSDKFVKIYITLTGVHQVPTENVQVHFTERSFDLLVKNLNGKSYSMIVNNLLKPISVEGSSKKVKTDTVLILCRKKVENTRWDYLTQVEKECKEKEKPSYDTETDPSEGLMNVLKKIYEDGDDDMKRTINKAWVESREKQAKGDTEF
UniProt Q9BSJ5: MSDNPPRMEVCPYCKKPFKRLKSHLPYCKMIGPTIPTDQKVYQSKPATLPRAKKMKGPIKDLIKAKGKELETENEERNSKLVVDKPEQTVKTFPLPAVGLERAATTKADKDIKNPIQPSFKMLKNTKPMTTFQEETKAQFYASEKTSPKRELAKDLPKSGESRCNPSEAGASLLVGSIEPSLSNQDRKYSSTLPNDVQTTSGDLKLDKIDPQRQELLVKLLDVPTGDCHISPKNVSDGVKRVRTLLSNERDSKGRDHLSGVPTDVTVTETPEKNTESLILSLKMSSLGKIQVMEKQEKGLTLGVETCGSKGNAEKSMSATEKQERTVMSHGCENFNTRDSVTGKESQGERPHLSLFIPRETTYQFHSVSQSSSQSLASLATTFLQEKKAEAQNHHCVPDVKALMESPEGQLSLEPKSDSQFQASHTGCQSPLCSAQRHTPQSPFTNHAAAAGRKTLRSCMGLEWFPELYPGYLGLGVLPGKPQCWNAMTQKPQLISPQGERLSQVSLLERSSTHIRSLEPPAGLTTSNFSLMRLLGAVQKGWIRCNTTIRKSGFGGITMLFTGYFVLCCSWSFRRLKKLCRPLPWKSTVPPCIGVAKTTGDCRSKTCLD
UniProt Q7KYR7: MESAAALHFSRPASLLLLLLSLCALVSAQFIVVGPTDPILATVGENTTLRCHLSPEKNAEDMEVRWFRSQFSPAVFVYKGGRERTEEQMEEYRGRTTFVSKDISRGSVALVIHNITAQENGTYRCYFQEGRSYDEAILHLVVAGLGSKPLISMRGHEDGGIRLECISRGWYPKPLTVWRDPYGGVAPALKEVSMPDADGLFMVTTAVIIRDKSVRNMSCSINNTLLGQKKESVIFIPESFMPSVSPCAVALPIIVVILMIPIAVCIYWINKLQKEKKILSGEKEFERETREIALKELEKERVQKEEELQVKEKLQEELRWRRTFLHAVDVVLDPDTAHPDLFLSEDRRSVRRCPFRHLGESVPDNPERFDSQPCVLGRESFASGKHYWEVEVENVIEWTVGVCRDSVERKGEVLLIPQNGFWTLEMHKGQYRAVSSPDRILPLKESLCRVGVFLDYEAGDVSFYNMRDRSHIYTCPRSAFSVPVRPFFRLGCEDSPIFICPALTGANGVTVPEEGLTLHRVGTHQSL

Question: How did the log2 fold change turn out when C1QBP (UniProt Q07021) was run?
Answer: Its log2 fold change is inactive: 0.017.

Question: How did the log2 fold change turn out when BUB1 (UniProt O43683) was run?
Answer: The log2 fold change was inactive: 0.156.

Question: C6orf47 (UniProt O95873) was tested. Which log2 fold change did it give?
Answer: The log2 fold change was inactive: 0.019.

Question: C2orf49 (UniProt Q9BVC5) was tested. Which log2 fold change did it give?
Answer: Its log2 fold change is inactive: 0.016.

Question: C17orf75 (UniProt Q9HAS0) was tested. Which log2 fold change did it give?
Answer: Its log2 fold change is inactive: 0.014.

Question: Which log2 fold change does the source give for CAP1 (UniProt Q01518) here?
Answer: The log2 fold change was inactive: 0.02.

Question: How did the log2 fold change turn out when CAND2 (UniProt O75155) was run?
Answer: Its log2 fold change is inactive: -0.004.

Question: For C8orf76 (UniProt Q96K31), which log2 fold change is on record?
Answer: The log2 fold change was inactive: 0.013.

Question: Which log2 fold change does the source give for CAPN1 (UniProt P07384) here?
Answer: Its log2 fold change is inactive: -0.02.

Question: With CAPZB (UniProt P47756) as the target, how does the log2 fold change read?
Answer: Its log2 fold change is inactive: 0.007.

Question: For BTF3L4 (UniProt Q96K17), which log2 fold change is on record?
Answer: The log2 fold change was inactive: -0.015.

Question: Which log2 fold change does the source give for C12orf45 (UniProt Q8N5I9) here?
Answer: Its log2 fold change is inactive: 0.026.

Question: C1GALT1 (UniProt Q9NS00) was tested. Which log2 fold change did it give?
Answer: Its log2 fold change is inactive: 0.053.

Question: C2orf69 (UniProt Q8N8R5) was tested. Which log2 fold change did it give?
Answer: Its log2 fold change is inactive: 0.049.

Question: C5orf22 (UniProt Q49AR2) was tested. Which log2 fold change did it give?
Answer: The log2 fold change was inactive: 0.064.

Question: With C2CD5 isoform 4 (UniProt Q86YS7) as the target, how does the log2 fold change read?
Answer: Its log2 fold change is inactive: 0.095.

Question: C3orf33 (UniProt Q6P1S2) was tested. Which log2 fold change did it give?
Answer: Its log2 fold change is inactive: 0.06.

Question: How did the log2 fold change turn out when C1orf198 (UniProt Q9H425) was run?
Answer: The log2 fold change was inactive: -0.01.

Question: With CARD8 isoform 5 (UniProt Q9Y2G2) as the target, how does the log2 fold change read?
Answer: Its log2 fold change is inactive: 0.127.

Question: Which log2 fold change does the source give for C1orf131 isoform 5 (UniProt Q8NDD1) here?
Answer: The log2 fold change was inactive: -0.052.

Question: How did the log2 fold change turn out when C3 (UniProt P01024) was run?
Answer: The log2 fold change was inactive: 0.072.

Question: With C1GALT1C1 (UniProt Q96EU7) as the target, how does the log2 fold change read?
Answer: The log2 fold change was inactive: 0.023.

Question: For CAPN7 (UniProt Q9Y6W3), which log2 fold change is on record?
Answer: The log2 fold change was inactive: 0.062.

Question: C15orf40 (UniProt Q8WUR7) was tested. Which log2 fold change did it give?
Answer: The log2 fold change was inactive: 0.058.

Question: CACYBP (UniProt Q9HB71) was tested. Which log2 fold change did it give?
Answer: The log2 fold change was inactive: 0.032.

Question: With CAPG (UniProt P40121) as the target, how does the log2 fold change read?
Answer: Its log2 fold change is inactive: 0.04.

Question: Which log2 fold change does the source give for C17orf80 (UniProt Q9BSJ5) here?
Answer: Its log2 fold change is inactive: 0.01.

Question: How did the log2 fold change turn out when C1orf52 (UniProt Q8N6N3) was run?
Answer: The log2 fold change was inactive: -0.002.

Question: With BTN2A1 (UniProt Q7KYR7) as the target, how does the log2 fold change read?
Answer: The log2 fold change was inactive: 0.015.

Question: With C11orf98 (UniProt E9PRG8) as the target, how does the log2 fold change read?
Answer: Its log2 fold change is inactive: -0.078.

Compound: CN1C2=C(C3=C1C(=O)N(N=C3)CC4=CC(=CC=C4)N)SC(=C2)S(=O)C
Assay: as above
Outline: as §1

Question: With C1QBP (UniProt Q07021) as the target, how does the log2 fold change read?
Answer: The log2 fold change was inactive: -0.083.

Question: For BUB1 (UniProt O43683), which log2 fold change is on record?
Answer: The log2 fold change was inactive: 0.005.

Question: Which log2 fold change does the source give for C6orf47 (UniProt O95873) here?
Answer: Its log2 fold change is inactive: -0.024.

Question: For C2orf49 (UniProt Q9BVC5), which log2 fold change is on record?
Answer: Its log2 fold change is inactive: -0.122.

Question: Which log2 fold change does the source give for C17orf75 (UniProt Q9HAS0) here?
Answer: Its log2 fold change is inactive: 0.001.

Question: For CAP1 (UniProt Q01518), which log2 fold change is on record?
Answer: The log2 fold change was inactive: -0.103.

Question: Which log2 fold change does the source give for CAND2 (UniProt O75155) here?
Answer: The log2 fold change was inactive: -0.001.

Question: Which log2 fold change does the source give for C8orf76 (UniProt Q96K31) here?
Answer: Its log2 fold change is inactive: -0.025.

Question: Which log2 fold change does the source give for CAPN1 (UniProt P07384) here?
Answer: The log2 fold change was inactive: -0.049.

Question: CAPZB (UniProt P47756) was tested. Which log2 fold change did it give?
Answer: Its log2 fold change is inactive: -0.06.

Question: How did the log2 fold change turn out when BTF3L4 (UniProt Q96K17) was run?
Answer: Its log2 fold change is inactive: -0.032.

Question: Which log2 fold change does the source give for C12orf45 (UniProt Q8N5I9) here?
Answer: Its log2 fold change is inactive: -0.028.

Question: C1GALT1 (UniProt Q9NS00) was tested. Which log2 fold change did it give?
Answer: The log2 fold change was inactive: -0.015.

Question: With C2orf69 (UniProt Q8N8R5) as the target, how does the log2 fold change read?
Answer: The log2 fold change was inactive: -0.147.

Question: Which log2 fold change does the source give for C5orf22 (UniProt Q49AR2) here?
Answer: The log2 fold change was inactive: -0.039.

Question: C2CD5 isoform 4 (UniProt Q86YS7) was tested. Which log2 fold change did it give?
Answer: Its log2 fold change is inactive: 0.048.

Question: C3orf33 (UniProt Q6P1S2) was tested. Which log2 fold change did it give?
Answer: The log2 fold change was inactive: -0.059.

Question: How did the log2 fold change turn out when C1orf198 (UniProt Q9H425) was run?
Answer: Its log2 fold change is inactive: -0.022.

Question: CARD8 isoform 5 (UniProt Q9Y2G2) was tested. Which log2 fold change did it give?
Answer: Its log2 fold change is inactive: 0.014.

Question: Which log2 fold change does the source give for C1orf131 isoform 5 (UniProt Q8NDD1) here?
Answer: The log2 fold change was inactive: 0.269.

Question: For C3 (UniProt P01024), which log2 fold change is on record?
Answer: The log2 fold change was inactive: 0.293.

Question: C1GALT1C1 (UniProt Q96EU7) was tested. Which log2 fold change did it give?
Answer: Its log2 fold change is inactive: -0.045.

Question: Which log2 fold change does the source give for CAPN7 (UniProt Q9Y6W3) here?
Answer: Its log2 fold change is inactive: -0.011.

Question: For C15orf40 (UniProt Q8WUR7), which log2 fold change is on record?
Answer: The log2 fold change was inactive: -0.079.

Question: For CACYBP (UniProt Q9HB71), which log2 fold change is on record?
Answer: Its log2 fold change is inactive: -0.033.

Question: Which log2 fold change does the source give for CAPG (UniProt P40121) here?
Answer: Its log2 fold change is inactive: -0.038.

Question: How did the log2 fold change turn out when C17orf80 (UniProt Q9BSJ5) was run?
Answer: Its log2 fold change is inactive: 0.012.

Question: How did the log2 fold change turn out when C1orf52 (UniProt Q8N6N3) was run?
Answer: Its log2 fold change is inactive: -0.047.

Question: For BTN2A1 (UniProt Q7KYR7), which log2 fold change is on record?
Answer: The log2 fold change was inactive: 0.006.

Question: With C11orf98 (UniProt E9PRG8) as the target, how does the log2 fold change read?
Answer: The log2 fold change was inactive: 0.284.

Compound: CN1CCC(CNc2ccc3ncc(-c4cccc(OC(F)(F)F)c4)n3n2)CC1
Assay: as above
Outline: as §1

Question: For C1QBP (UniProt Q07021), which log2 fold change is on record?
Answer: Its log2 fold change is inactive: 0.098.

Question: For BUB1 (UniProt O43683), which log2 fold change is on record?
Answer: Its log2 fold change is inactive: -0.297.

Question: Which log2 fold change does the source give for C6orf47 (UniProt O95873) here?
Answer: The log2 fold change was inactive: 0.081.

Question: Which log2 fold change does the source give for C2orf49 (UniProt Q9BVC5) here?
Answer: Its log2 fold change is inactive: 0.097.

Question: C17orf75 (UniProt Q9HAS0) was tested. Which log2 fold change did it give?
Answer: Its log2 fold change is inactive: -0.068.

Question: With CAP1 (UniProt Q01518) as the target, how does the log2 fold change read?
Answer: Its log2 fold change is inactive: -0.001.

Question: How did the log2 fold change turn out when CAND2 (UniProt O75155) was run?
Answer: The log2 fold change was inactive: -0.074.

Question: C8orf76 (UniProt Q96K31) was tested. Which log2 fold change did it give?
Answer: The log2 fold change was inactive: 0.021.

Question: CAPN1 (UniProt P07384) was tested. Which log2 fold change did it give?
Answer: Its log2 fold change is inactive: 0.071.

Question: Which log2 fold change does the source give for CAPZB (UniProt P47756) here?
Answer: The log2 fold change was inactive: -0.004.

Question: For BTF3L4 (UniProt Q96K17), which log2 fold change is on record?
Answer: The log2 fold change was inactive: -0.004.

Question: How did the log2 fold change turn out when C12orf45 (UniProt Q8N5I9) was run?
Answer: The log2 fold change was inactive: -0.01.

Question: For C1GALT1 (UniProt Q9NS00), which log2 fold change is on record?
Answer: Its log2 fold change is inactive: -0.037.

Question: How did the log2 fold change turn out when C2orf69 (UniProt Q8N8R5) was run?
Answer: The log2 fold change was inactive: 0.17.

Question: C5orf22 (UniProt Q49AR2) was tested. Which log2 fold change did it give?
Answer: Its log2 fold change is inactive: -0.068.

Question: Which log2 fold change does the source give for C2CD5 isoform 4 (UniProt Q86YS7) here?
Answer: The log2 fold change was inactive: -0.061.

Question: For C3orf33 (UniProt Q6P1S2), which log2 fold change is on record?
Answer: Its log2 fold change is inactive: 0.035.

Question: C1orf198 (UniProt Q9H425) was tested. Which log2 fold change did it give?
Answer: The log2 fold change was inactive: 0.008.

Question: Which log2 fold change does the source give for CARD8 isoform 5 (UniProt Q9Y2G2) here?
Answer: The log2 fold change was inactive: 0.03.

Question: Which log2 fold change does the source give for C1orf131 isoform 5 (UniProt Q8NDD1) here?
Answer: Its log2 fold change is inactive: 0.19.

Question: C3 (UniProt P01024) was tested. Which log2 fold change did it give?
Answer: The log2 fold change was inactive: 0.081.

Question: C1GALT1C1 (UniProt Q96EU7) was tested. Which log2 fold change did it give?
Answer: The log2 fold change was inactive: 0.087.

Question: With CAPN7 (UniProt Q9Y6W3) as the target, how does the log2 fold change read?
Answer: Its log2 fold change is inactive: -0.062.

Question: C15orf40 (UniProt Q8WUR7) was tested. Which log2 fold change did it give?
Answer: The log2 fold change was inactive: 0.031.

Question: For CACYBP (UniProt Q9HB71), which log2 fold change is on record?
Answer: The log2 fold change was inactive: -0.045.

Question: Which log2 fold change does the source give for CAPG (UniProt P40121) here?
Answer: The log2 fold change was inactive: 0.036.

Question: Which log2 fold change does the source give for C17orf80 (UniProt Q9BSJ5) here?
Answer: Its log2 fold change is inactive: -0.046.

Question: Which log2 fold change does the source give for C1orf52 (UniProt Q8N6N3) here?
Answer: Its log2 fold change is inactive: 0.005.

Question: With BTN2A1 (UniProt Q7KYR7) as the target, how does the log2 fold change read?
Answer: The log2 fold change was inactive: 0.128.

Question: Which log2 fold change does the source give for C11orf98 (UniProt E9PRG8) here?
Answer: Its log2 fold change is inactive: 0.302.
